Data: patent US8158632B2, “Pyrazolo[1,5-a]pyrimidines, processes, uses and compositions” (priority 2006, dated 2012)
Some results were stated once for a whole list of compounds, not compound by compound.

Assay: Metabolic stability in human hepatocytes cytosolic fraction
Format: in vitro ADME
Settings: after incubation for 60 and 120 min
Description: c) In Vitro Determination of Metabolic Stability in Human Hepatocytes Cytosolic Fraction
Compounds were dissolved in dimethyl sulfoxide to achieve an initial concentration of 10 mM. This stock solution was then diluted with solvent and buffer to obtain final assay concentration of 5 μM. Compounds were tested at a single concentration of 5 μM in duplicate incubating with 1.0 mg/mL of pooled human cytosol (obtained from Xenotech plc) at 37° C. Metabolism was assessed in the presence or absence of cofactors and measured as loss of parent compound by LC/MS analysis at 0, 60 and 120-minutes time points. Percentages of remaining parent compounds were then calculated.

CN(c1cc(-c2ccnc3c(C#N)cnn23)ccc1F)S(C)(=O)=O [Preparative example 6, N-{2-fluoro-5-[3-cyano-pyrazolo[1,5-a]pyrimidin-7-yl]-phenyl}-N-methyl-methanesulfonamide]
higher percentage of the remaining parent compound compared with zaleplon and the prior art compound of WO 2005014596: 10-20%
